The star is where a group is joined. Pbf = Cc1c(C)c(S(=O)(=O)*)c(C)c2c1OC(C)(C)C2; OtBu = CC(C)(C)O*
Experiment: general procedure: solution-phase peptide synthesis; EDC.HCl/HOBt
[1] = late stage modification step, HCl

Substance: Ac-RLDLRLALRLDLR-NH2
- step yield (late stage modification step, 2H2SO4): 98% yield
- step yield (late stage modification step, 4HCl, run 1): 40% yield

Substance: Ac-R(Pbf)LD(OtBu)LR(Pbf)LAL-OMe
- step yield (coupling step, from Peptide derivative Ia, 2H2SO4, 4MsOH, 4HCl): 88% yield

Substance: Ac-R(Pbf)LD(OtBu)LR(Pbf)LALR(Pbf)LD(OtBu)LR(Pbf)-NH2
- step yield (coupling step, from hydrochloric acid salt of Peptide derivative Ib, 2H2SO4, 4MsOH, 4HCl): 58% yield

Substance: Cl^−.H2^+-Arg(Pbf)-Leu-Asp(Ot-Bu)-Leu-Arg(Pbf)-OMe
- step yield [1]: 98% yield

Substance: Ac-RLDLRLLLRLDLR-NH2
- step yield (late stage modification step, 4HCl): 28% yield

Substance: Cl^−.H2^+-Arg(Pbf)-Leu-Asp(Ot-Bu)-Leu-Arg(Pbf)-NH2
- step yield [1]: 91.2% yield

Substance: Ac-R(Pbf)LD(OtBu)LR(Pbf)LALR(Pbf)LD(OtBu)LR(Pbf)-OMe
- step yield (coupling step, from Ac-Arg(Pbf)-Leu-Asp(Ot-Bu)-Leu-Arg(Pbf)-Leu-Ala-Leu-OH, 2H2SO4, 4MsOH, 4HCl): 56% yield

Substance: Ac-R(Pbf)LD(OtBu)LR(Pbf)-OH
- step yield (late stage modification step, 2H2SO4, 4MsOH, 4HCl): 95.6% yield

From patent US20150175663 (published 2015)
